According to PubChem BioAssay AID1439 (NMMLSC, 2008):
Among all 220,000 compounds or so, about 770 (0.35%) were called active. Inconclusive means that the source gave no clear call. Such entries were picked first, then a sample of the others. Rule as the data show it: active = binding response below about 49% or above about 150%; inconclusive = no clear call, values can overlap the other calls; inactive = in between.

By UniProt entry, the sequences of proteins in these tests, tags left out.
UniProt P09471, whole entry, looked up: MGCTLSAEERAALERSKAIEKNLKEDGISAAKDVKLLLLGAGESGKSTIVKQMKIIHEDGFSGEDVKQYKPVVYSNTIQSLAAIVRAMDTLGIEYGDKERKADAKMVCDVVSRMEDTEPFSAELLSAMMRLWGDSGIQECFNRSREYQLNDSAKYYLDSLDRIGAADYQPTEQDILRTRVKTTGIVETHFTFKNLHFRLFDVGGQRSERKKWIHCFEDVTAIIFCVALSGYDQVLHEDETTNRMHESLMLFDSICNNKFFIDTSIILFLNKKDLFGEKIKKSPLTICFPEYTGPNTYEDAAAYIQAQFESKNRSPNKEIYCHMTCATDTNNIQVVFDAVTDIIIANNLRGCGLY

Each compound was assayed against Guanine nucleotide-binding protein G(o) subunit alpha (Homo sapiens) (UniProt P09471) (assay: RGS7-Galphao binding modulators, primary screen, biochemical, multiplexed bead flow cytometry (AID 1439;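 also: fluorescent Galphao held in activated GDP-AlF4 state binding bead-coupled RGS7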)). Settings: at 10 µM, actives lie on both sides.
`CNC(=S)Nc1ccc2[nH]c(=O)[nH]c2c1` was tested, and the binding response (% of control) was inconclusive: 108%. `COCC(C)NC(=O)c1cc2cccc([N+](=O)[O-])c2[nH]1` (stereo unspecified) was tested, and the binding response (% of control) was inconclusive: 89.5%. `CN(c1ccccc1)S(=O)(=O)c1cccc(C(=O)Nc2ncn[nH]2)c1` was tested, and the binding response (% of control) was inconclusive: 59.9%. `O=C(O)c1ccc2c(c1)CCCN2` was tested, and the binding response (% of control) was inconclusive: 94%. With `NNC(=O)c1ccc(Oc2cc(Cl)cc(Cl)c2)o1` the binding response (% of control) was inconclusive: 129%. In the case of `CCC1(CC)C(=O)N(C)C(=O)NC1=Nc1ccccc1`, the binding response (% of control) is reported as inactive: 103%. `CC(=O)C(/C=N/c1cc(-c2ccc(C)cc2)nn1-c1ccccc1)=C(\C)O` was tested, and the binding response (% of control) was inactive: 103%. In the case of `CSc1nc(N)n2nc(-c3ccccc3)cc2n1`, the binding response (% of control) is reported as inconclusive: 90.1%. In the case of `CCN(CC(=O)NCc1ccccc1Cl)CC(=O)Nc1c(F)cccc1F`, the binding response (% of control) is reported as inconclusive: 89.6%. `COc1ccccc1CNC(=O)C(=O)NCC(c1ccco1)N1CCOCC1` (stereo unspecified) was tested, and the binding response (% of control) was inactive: 92.3%. For `COc1ccc(CCN=c2c([N+](=O)[O-])nn(-c3cccc(C)c3)n2O)cc1OC`, the binding response (% of control) was inconclusive: 101%. For `CCSc1nnc([C@@H](NC(=O)OC(C)(C)C)C(C)C)o1`, the binding response (% of control) was inconclusive: -297%. With `CN1CCN(S(=O)(=O)c2ccc(Oc3ccc(F)c(Cl)c3)nc2)CC1` the binding response (% of control) was inactive: 112%. `O=C(O)c1ccc(N/N=C/c2cc3c(cc2[N+](=O)[O-])OCO3)cc1` was tested, and the binding response (% of control) was inconclusive: 98.5%. For `CC(=O)N1N=C2c3ccccc3CCC2C1c1ccc(F)cc1` (stereo unspecified), the binding response (% of control) was inconclusive: 96.8%. In the case of `CC(=O)Oc1ccc(C(=O)Nc2cccc(-c3nnc(-c4ccco4)o3)c2)cc1`, the binding response (% of control) is reported as inconclusive: 79.8%. For `COc1ccc(/C(C)=N/Nc2nc3ccccc3nc2C)cc1`, the binding response (% of control) was inconclusive: 99.1%. In the case of `S=c1[nH]nc2nnc3ccccc3n12`, the binding response (% of control) is reported as inconclusive: 91.8%. In the case of `CCOc1ccc(N2C(=O)/C(=C/c3cccs3)N(C)C2=S)cc1`, the binding response (% of control) is reported as inactive: 105%. In the case of `Cc1ccc(NC(=O)c2ccccc2CCc2ccccc2)c(C)c1`, the binding response (% of control) is reported as inactive: 122%. `O=C1NCCCC1C(=O)N/N=C/c1cc([N+](=O)[O-])ccc1O` (stereo unspecified) was tested, and the binding response (% of control) was inconclusive: 68.6%. In the case of `COC(=O)c1cc(Cl)nc2ccccc12`, the binding response (% of control) is reported as inactive: 98.7%. `Cc1onc(-c2ccccc2)c1NC(=O)N(CCC#N)Cc1ccccc1` was tested, and the binding response (% of control) was inconclusive: 90.5%. With `Cc1cc(Sc2nc(NC(C)C)nc(NC(C)C)n2)nc(Cl)n1` the binding response (% of control) was inactive: 110%. With `COC(=O)c1cccc(C#CC(NP(=O)(c2ccccc2)c2ccccc2)c2ccccc2)c1` (stereo unspecified) the binding response (% of control) was inconclusive: 118%. In the case of `CCCOC1CCCN(Cc2nc(-c3ccc(C(=O)OC)cc3)no2)C1` (stereo unspecified), the binding response (% of control) is reported as inconclusive: 104%. `O=C(CNC(=O)C1COc2ccccc2O1)N/N=C/c1ccc(O)cc1O` (stereo unspecified) was tested, and the binding response (% of control) was inactive: 61%. In the case of `C/C=C/c1ccc(OCCCCN2CC(C)CC(C)C2)c(OC)c1` (stereo unspecified), the binding response (% of control) is reported as inconclusive: 104%. With `CC(=NCCc1ccccc1)C1=C(O)C(c2ccccc2)OC1=O` (stereo unspecified) the binding response (% of control) was inconclusive: 77.7%. In the case of `CCOC(=O)C(C)Oc1ccc(OCc2ccccc2)cc1` (stereo unspecified), the binding response (% of control) is reported as inactive: 101%. `CC(=O)CSc1ncnc2sc3c(c12)CCC3` was tested, and the binding response (% of control) was inconclusive: 96.9%. For `COc1cc(OC)cc(C(=O)NNC(=O)c2ccc(S(=O)(=O)N(C)c3ccccc3OC)cc2)c1`, the binding response (% of control) was inconclusive: 4.73%. For `CCOC(=O)c1cc(CC)sc1NC(=O)COC(=O)c1cc[n+]([O-])cc1`, the binding response (% of control) was inconclusive: 99.3%. `CC1CCCCN1CC(O)COCCC12CC3CC(CC(C3)C1)C2` (stereo unspecified) was tested, and the binding response (% of control) was inconclusive: 103%. `CCC1(C)N=C(N)Nc2nc3cc(C)c(C)cc3n21` (stereo unspecified) was tested, and the binding response (% of control) was inconclusive: 71.8%. In the case of `CCn1nc(C)c(Br)c1-c1nc(CS(=O)(=O)c2ccc(F)cc2)no1`, the binding response (% of control) is reported as inconclusive: 260%. In the case of `CC(=O)NS(=O)(=O)c1ccc(Nc2ccc([N+](=O)[O-])c3nonc23)cc1`, the binding response (% of control) is reported as inconclusive: 93.6%. `CCCN1C2CCCC1CC(NC(=S)Nc1cc(C)cc(C)c1)C2` (stereo unspecified) was tested, and the binding response (% of control) was inactive: 98.2%. `CCOC(=O)c1nnn2c1nc(N(CC)CC)c1ccccc12` was tested, and the binding response (% of control) was inconclusive: 87.8%. `COc1cc(NC(=O)C/C(C)=N/NC(=O)C(=O)NCCO)c(OC)cc1Cl` was tested, and the binding response (% of control) was inconclusive: 105%. `CCOc1ccc(N2C(=O)/C(=C/c3ccccn3)SC2=S)cc1` was tested, and the binding response (% of control) was inconclusive: 80.4%. For `CCCN(Cc1nnc(-c2ccccc2Cl)o1)C(=O)c1cc([N+](=O)[O-])cc([N+](=O)[O-])c1`, the binding response (% of control) was inactive: 108%. In the case of `COc1ccc(S(=O)(=O)N2CCC(O)(c3ccc(Cl)cc3)CC2)cc1OC`, the binding response (% of control) is reported as inconclusive: 25.8%. With `O=C(c1ccco1)N1CCN(c2nc(C(F)(F)F)nc3c2nnn3Cc2ccccc2)CC1` the binding response (% of control) was inactive: 98.5%. With `C=C1CCN(C(CC(C)C)C(=O)OC)S(=O)(=O)c2ccccc21` (stereo unspecified) the binding response (% of control) was inconclusive: 65.4%. For `CCn1c(=O)n(CC(=O)N2CC(C)CC(C)C2)c(=O)c2ccccc21` (stereo unspecified), the binding response (% of control) was inactive: 98.1%. `Cc1cc(N/C=C(\C#N)S(=O)(=O)c2ccc(Cl)cc2)nc(C)n1` was tested, and the binding response (% of control) was inconclusive: 186%. With `CC1CC(C)(C)NC(=S)N1CC(=O)NCc1ccc2c(c1)OCO2` (stereo unspecified) the binding response (% of control) was inconclusive: 105%. With `COc1ccc(C(=O)N(c2ccccn2)C2CCCCC2)c(OC)c1` the binding response (% of control) was inconclusive: 67.8%. `O=C(Nc1ccc(Nc2ccccc2)cc1)C(Cl)(Cl)Cl` was tested, and the binding response (% of control) was inactive: 102%. With `O=C1NN(c2cccc(Br)c2)C(=O)/C1=C/c1cccs1` the binding response (% of control) was inconclusive: 115%. In the case of `COc1cccc2[nH]c(C(=O)NN)c(N)c12`, the binding response (% of control) is reported as inconclusive: 111%. For `O=C(O)CC/C(=N/NC(=O)CNC(=O)Cc1ccccc1)c1ccccc1`, the binding response (% of control) was inconclusive: -235%. For `Cc1ccc(SC[C@H](CC(C)C)N2CCN(C)CCC2=O)cc1`, the binding response (% of control) was inconclusive: 87.4%. With `COc1cc2[nH]c(=S)n(Cc3ccccc3)c(=O)c2cc1OC` the binding response (% of control) was inconclusive: 98.8%. With `CN(C)/C=C/C(=O)c1cnc(-c2ccc(Cl)cc2)s1` the binding response (% of control) was active: 2.49%. For `COc1c(O)ccc2c1CN1CCc3cc4c(cc3C1C2)OCO4` (stereo unspecified), the binding response (% of control) was inconclusive: 94.7%. For `O=c1[nH]c(SCc2ccc(Cl)cc2)nc2ccsc12`, the binding response (% of control) was inconclusive: 91.2%. With `CC(=O)Nc1ccc(NC(=O)C(C)OC(=O)C2CCN(S(=O)(=O)c3cccs3)CC2)cc1` (stereo unspecified) the binding response (% of control) was inconclusive: 82.3%. `O=C(Cn1cnc2cc([N+](=O)[O-])ccc2c1=O)Nc1ccc(Br)cc1` was tested, and the binding response (% of control) was inconclusive: 341%. In the case of `CN(C)CCCN=C(NO)c1ccc(Cl)cc1Cl`, the binding response (% of control) is reported as inconclusive: 99.5%. `Cc1nc(SCc2ccccc2)c2oc3ccccc3c2n1` was tested, and the binding response (% of control) was inconclusive: 80.9%. `Cc1ccc(N(Cc2cc3ccc(C)cc3[nH]c2=O)C(=O)c2cccs2)cc1` was tested, and the binding response (% of control) was inconclusive: 115%. For `CCC(=O)c1ccc(NC(C)=O)cc1O`, the binding response (% of control) was inconclusive: 58.9%. For `CN(CC(O)COCc1ccccc1F)C1CCCCC1` (stereo unspecified), the binding response (% of control) was inconclusive: 75.6%. With `Clc1nc2c(-c3ccccc3)nnn2c2ccccc12` the binding response (% of control) was inconclusive: 101%. `CCOC(=O)COc1cccc2c(=O)n(CC(=O)NCc3ccccc3)ccc12` was tested, and the binding response (% of control) was inconclusive: 98.6%. In the case of `COc1cc(/C=N/NC(=O)CCC(=O)NC2CCCCC2)ccc1C`, the binding response (% of control) is reported as inconclusive: 109%. For `C=CCN1C=C2C(=O)C(C)(OC(=O)c3cccs3)C(=O)C=C2C=C1CCCC(=O)OC` (stereo unspecified), the binding response (% of control) was inconclusive: 123%. For `N#Cc1c2n(c(=S)n(-c3ccc(F)cc3)c1=O)CCCCC2`, the binding response (% of control) was inactive: 103%. For `O=C(NC1CCCC1)C(c1ccc(Cl)cc1)N1CCN(C2CCCCC2)CC1` (stereo unspecified), the binding response (% of control) was inconclusive: 50.3%. In the case of `COC(C/C=C\[C@@H](O)COCc1ccccc1)OC`, the binding response (% of control) is reported as inconclusive: 103%. For `CC1=NN2C(=N)/C(=C\c3cc(C)n(Cc4ccccc4)c3C)C(=O)N=C2S1`, the binding response (% of control) was inconclusive: 96.4%. `COC(=O)c1sc(NC(=O)c2ccc([N+](=O)[O-])o2)c(C#N)c1C` was tested, and the binding response (% of control) was inconclusive: 48.6%. For `COc1ccc(NC(=O)Nc2ccc(Br)cn2)cc1`, the binding response (% of control) was inconclusive: 100%. `CCCSc1ccc(C(=O)Nc2ccc(Cl)cc2)cn1` was tested, and the binding response (% of control) was inconclusive: 69.9%. With `CCn1c(C)c(P(=O)(N2CCOCC2)N2CCOCC2)c2ccccc21` the binding response (% of control) was inconclusive: 106%. `COCc1cc(C)nc(OCC(=O)N/N=C/c2ccc(-c3cc([N+](=O)[O-])ccc3Cl)o2)c1C#N` was tested, and the binding response (% of control) was inactive: 103%. In the case of `CC(C)Nc1ccc(C(CC(N)=O)NC(=O)Cc2ccc(Br)cc2)cc1[N+](=O)[O-]` (stereo unspecified), the binding response (% of control) is reported as inconclusive: 117%. `CC1CN(Cc2c(O)ccc3c2oc(=O)c2ccccc23)CC(C)O1` (stereo unspecified) was tested, and the binding response (% of control) was inconclusive: 63.2%. For `O=C1Nc2ccccc2C1(O)Cc1ccccn1` (stereo unspecified), the binding response (% of control) was inconclusive: 60.1%. For `CCc1nc(N[C@H](C(=O)O)C(C)C)c2oc3ccccc3c2n1`, the binding response (% of control) was inconclusive: -65.3%. `O=C(N/N=C/c1ccc([N+](=O)[O-])o1)c1cn2ccc3ccccc3c2n1` was tested, and the binding response (% of control) was inconclusive: 101%. `COc1ccc(-c2cc([C@H]3[C@@H]4C=CCC[C@@]4(C)C(=O)N3Cc3ccccc3)ccc2F)cc1` was tested, and the binding response (% of control) was inconclusive: 92.1%. `N#Cc1c(NC(=O)CSc2nc3ccccc3s2)sc2c1CCCC2` was tested, and the binding response (% of control) was inactive: 103%. With `O=C(c1ccc(S(=O)(=O)N2CCCCC2)cc1)N(c1ccccn1)C1CCCCC1` the binding response (% of control) was inconclusive: -31.5%. `Cc1ccc(Cn2nnc3c(=O)[nH]c(C4CCCN(S(=O)(=O)c5ccccc5)C4)nc32)cc1` (stereo unspecified) was tested, and the binding response (% of control) was inactive: 80.2%. In the case of `Cc1[nH]c2ccccc2c1/C=N/NC(=S)NCc1ccccc1`, the binding response (% of control) is reported as inconclusive: 730%. With `ClC1=C(Cl)C(Cl)=C(Cl)C1=C/C=C/c1ccccc1` the binding response (% of control) was inconclusive: 106%. In the case of `N#CC1=C(N)OC2=C(CC/C2=C\c2ccccc2Cl)C1c1ccccc1Cl` (stereo unspecified), the binding response (% of control) is reported as inactive: 101%. In the case of `CN(C)C(=S)Nc1ccc(S(=O)(=O)N2CCCCC2)cc1`, the binding response (% of control) is reported as inconclusive: 106%.
